Library screening results

Source: ChEMBL document CHEMBL3988442, “University of Dundee, Small-Polar-MMV Screening Library” (2021).

Mtb growth Cornell: 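Whole-cell assay for inhibitors of Mycobacterium tuberculosis growth, labelled Cornell in the record; the read-out is not stated. The concentration is filed as 10 mM, unlikely as a test dose, so the dose is not known. The record gives no direction; compounds strong in two other growth screens of this library score well above the rest, so higher reads as stronger inhibition. About 53,000 compounds were tested under these conditions; 1.7% (about 900) showed 50% or more at least once.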
Mtb heat-shock: 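Assay on Mycobacterium tuberculosis, filed only as a heat shock assay from Cornell; the read-out is not stated. The concentration is filed as 10 mM, unlikely as a test dose, so the dose is not known. Higher reads as stronger inhibition (inferred: compounds with an IC50 in retests scored well above the rest). About 69,000 compounds were tested under these conditions; 1.4% (about 930) showed 50% or more at least once.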

Values are the deposited “Percent Effect”, in %.
How 0% and 100% were set is not recorded. Most values in the screen are low, and negative values occur.
This is an unselected part of the compounds tested.

* COCC1CC2(CCN(Cc3nc(C)cs3)CC2)CO1 (stereo not given) | Mtb growth Cornell: 16.48%; Mtb heat-shock: 0.5845%
* O=C1COc2ccccc2N1CCCn1cnnn1 | Mtb growth Cornell: 0.5207%; Mtb heat-shock: 19.33%
* CCc1nc(CN(C)CC(=O)NC(C)C)cs1 | Mtb growth Cornell: 7.618%; Mtb heat-shock: 0.7312%
* O=C(CC1OCCc2ccsc21)NCC1CC1 (stereo not given) | Mtb growth Cornell: 0.1697%; Mtb heat-shock: 12.49%
* COc1ccccc1Oc1ncccc1CNC(=O)C1(C)CCCNC1 (stereo not given) | Mtb growth Cornell: 0.04105%; Mtb heat-shock: 20.02%
* Cc1ccc(N2CCC3(CCCN3Cc3ccn(C)n3)CC2)nn1.O=C(O)C(F)(F)F | Mtb growth Cornell: 10.29%; Mtb heat-shock: -13.3%
* COc1cccc(Cn2c(=O)n(C)c(=O)c3sccc32)c1 | Mtb growth Cornell: 6.355%; Mtb heat-shock: -13.66%
* COC(C)(C)C(=O)N[C@H]1CN(c2nccnc2N(C)C)C[C@@H]1C(C)C | Mtb growth Cornell: -121.3%; Mtb heat-shock: -23.1%
* O=C(CN1CCc2ccccc2C1)NCc1ccco1 | Mtb growth Cornell: -56.54%; Mtb heat-shock: -32.43%
* Cc1nc(CN2CCC3(CCCO3)CCC2=O)no1 (stereo not given) | Mtb growth Cornell: -21.05%; Mtb heat-shock: -0.4495%
* Cc1noc(C)c1CN1CCC2(CC1)NC(=O)CC2c1cnn(C)c1 (stereo not given) | Mtb growth Cornell: 47.68%; Mtb heat-shock: 13.27%
* CN1CCN(C(=O)c2cccn2C)Cc2cccnc21 | Mtb growth Cornell: 42.36%; Mtb heat-shock: -9.414%
* [H][C@@]12CCN(Cc3ccco3)C[C@@]1([H])[C@H](C(=O)N1CCCCO1)CCO2 | Mtb growth Cornell: 12.79%; Mtb heat-shock: -6.078%
* O=C(O)C(F)(F)F.O=C(O)C(F)(F)F.[H][C@@]12CCN(Cc3cnn(C)c3)[C@@]1([H])CCN2Cc1ccc2c(c1)OCO2 | Mtb heat-shock: -3.475%
* COCc1nc(C(=O)N2CCN(Cc3cc(C)on3)CC2)cs1 | Mtb growth Cornell: 15.34%; Mtb heat-shock: -16.39%
* CN1C(=O)Cc2cc(-c3csc(CCN4CCOC4=O)n3)ccc21 | Mtb heat-shock: -20.57%
* N#Cc1ccc(N2CCCN(CCCn3cncn3)CC2)cc1 | Mtb growth Cornell: 19.79%; Mtb heat-shock: 4.713%
* CN(Cc1ccccn1)C1CCCN(Cc2noc(C3CC3)n2)C1 (stereo not given) | Mtb growth Cornell: 10.03%; Mtb heat-shock: 11.83%
* CNC(=O)c1nc2c(s1)CCN(C(=O)c1cccc(OC)c1)CC2 | Mtb growth Cornell: 10.37%; Mtb heat-shock: -7.021%
* CN(C)c1ncccc1NC(=O)COC1CCCC1 | Mtb heat-shock: -5.191%
* COCCO[C@H]1CCN(Cc2cccnc2)[C@H]1Cc1cccnc1.O=C(O)C(F)(F)F.O=C(O)C(F)(F)F.O=C(O)C(F)(F)F | Mtb heat-shock: -30.96%
* CCN(CC1CCCO1)C(=O)Nc1cccc(N2CCOCC2)c1 (stereo not given) | Mtb growth Cornell: 5.45%; Mtb heat-shock: 7.334%
* Cc1cc(C)n(CC(=O)N2CCCCC2CCN2CCCC2=O)c(=O)n1 (stereo not given) | Mtb growth Cornell: 8.917%; Mtb heat-shock: 4.567%
* Cc1cnccc1CN1Cc2ccccc2O[C@]2(CC[C@H](CO)CC2)C1 | Mtb growth Cornell: -17.61%; Mtb heat-shock: 41.59%
* O=C(NCC1(c2cccc(F)c2)CC1)N1CCC2(CCOC2)C1 (stereo not given) | Mtb growth Cornell: 31.94%; Mtb heat-shock: -18.85%
* COCC(=O)N1CCC([C@@H]2C[C@H](C(F)(F)F)n3nc(C)cc3N2)CC1 | Mtb growth Cornell: -24.94%; Mtb heat-shock: 3.673%
* COCCc1nnc(NC(=O)CSCc2ccccc2)o1 | Mtb growth Cornell: 22.72%; Mtb heat-shock: 28.18%
* [H][C@@]12OCCN(C(=O)C3CCOCC3)[C@@]1([H])CC[C@@H]2OCC1CC1 | Mtb growth Cornell: 23.37%; Mtb heat-shock: -1.924%
* Cc1cc(CNC(=O)NC(C)c2ccccc2)no1 (stereo not given) | Mtb heat-shock: -1.719%
* CN(C)CCN(C)c1cc(N2CCN(c3ccccn3)CC2)ncn1 | Mtb growth Cornell: 16.68%; Mtb heat-shock: -7.266%
* Cc1cc(CN2CCC3(CC2)C(=O)NCCN3CC2CC2)oc1C | Mtb growth Cornell: 35.08%; Mtb heat-shock: -11.82%
* CC(Nc1nc(-c2ccccc2)nc2c1CCNCC2)c1nccs1 (stereo not given) | Mtb growth Cornell: 28.69%; Mtb heat-shock: 20.74%
* Cc1cc(C[C@@H]2CCC[C@H]2NCc2ccccc2C)on1.O=C(O)CC(O)(CC(=O)O)C(=O)O | Mtb heat-shock: -5.874%
* O=C1NCC2CN(Cc3ccccc3OCc3ccccn3)CCN12 (stereo not given) | Mtb heat-shock: -1.262%
* Cc1ccc(CN2CCOC3(CCN(C(=O)N4CCCC4)CC3)C2)cc1.O=C(O)C(F)(F)F | Mtb growth Cornell: 22.45%; Mtb heat-shock: -18.3%
* OC(c1ccccn1)C1CCN(Cc2cc3n(n2)CCNC3)CC1 (stereo not given) | Mtb growth Cornell: -29.16%; Mtb heat-shock: -8.232%
* Cc1nc(CCN(C)C(=O)C2COc3ccccc3C2)no1 (stereo not given) | Mtb growth Cornell: -8.159%; Mtb heat-shock: -10.56%
* CN1CC(=O)N(c2cccc(F)c2)CC12CCN(Cc1ccsc1)C2.O=C(O)C(F)(F)F.O=C(O)C(F)(F)F (stereo not given) | Mtb growth Cornell: -18.13%; Mtb heat-shock: 21.81%
* Cc1ccc(CNCc2nnc3n2CC(C(F)(F)F)CC3)cc1 (stereo not given) | Mtb growth Cornell: -16.89%; Mtb heat-shock: -8.94%

The last 2 entries again:

Compound	Mtb growth Cornell	Mtb heat-shock
CN1CC(=O)N(c2cccc(F)c2)CC12CCN(Cc1ccsc1)C2.O=C(O)C(F)(F)F.O=C(O)C(F)(F)F (stereo not given)	-18.13	21.81
Cc1ccc(CNCc2nnc3n2CC(C(F)(F)F)CC3)cc1 (stereo not given)	-16.89	-8.94